The record followed here is article PMC6016232.

These are yes or no findings as the source states them, for the method shown. Binding seen in cells or lysates may run through a third protein. These calls come from enrichment with a bait or labelling near it, and not all partners need be listed.

The test has as its target Fbx23::TAP (Aspergillus nidulans). The test is described as follows: affinity purification with mass spectrometry; Fbx23::TAP tandem affinity purification, LC-MS/MS; strains grown 24 h in 1% xylan, then glucose to 2% for 5, 10, 15 and 30 min; untagged strain as negative control, unspecific interactions subtracted.

B1: SkpA (protein, UniProt Q5BAX8 1-161)
chain: MAEKMLVMTSNDGKNIEVPRDVAERSLLIKNMLEDLGDPTEPIPIPNVSENVLSKVLEWCAHHRNDPPSSADDDDSRRKTTDIEEWDQKFMQVDQEMLFEIILAANYLDIKPLLDIGCKTVANMIKGKSPEEIRKTFNIQNDFTPEEEDQIRRENEWAEDR
Consider B1, for which the binding result is reported as “binds”.
